Results: article PMC7176855
These are yes or no findings as the source states them, for the method shown. Binding seen in cells or lysates may run through a third protein. Some results given as binding are weak or reduced against the parent protein; the word gives no strength. Each block holds one molecule with its values, some of them ahead of it.

Amino acid sequences for entries named in this document (tags omitted).
UniProt Q16665: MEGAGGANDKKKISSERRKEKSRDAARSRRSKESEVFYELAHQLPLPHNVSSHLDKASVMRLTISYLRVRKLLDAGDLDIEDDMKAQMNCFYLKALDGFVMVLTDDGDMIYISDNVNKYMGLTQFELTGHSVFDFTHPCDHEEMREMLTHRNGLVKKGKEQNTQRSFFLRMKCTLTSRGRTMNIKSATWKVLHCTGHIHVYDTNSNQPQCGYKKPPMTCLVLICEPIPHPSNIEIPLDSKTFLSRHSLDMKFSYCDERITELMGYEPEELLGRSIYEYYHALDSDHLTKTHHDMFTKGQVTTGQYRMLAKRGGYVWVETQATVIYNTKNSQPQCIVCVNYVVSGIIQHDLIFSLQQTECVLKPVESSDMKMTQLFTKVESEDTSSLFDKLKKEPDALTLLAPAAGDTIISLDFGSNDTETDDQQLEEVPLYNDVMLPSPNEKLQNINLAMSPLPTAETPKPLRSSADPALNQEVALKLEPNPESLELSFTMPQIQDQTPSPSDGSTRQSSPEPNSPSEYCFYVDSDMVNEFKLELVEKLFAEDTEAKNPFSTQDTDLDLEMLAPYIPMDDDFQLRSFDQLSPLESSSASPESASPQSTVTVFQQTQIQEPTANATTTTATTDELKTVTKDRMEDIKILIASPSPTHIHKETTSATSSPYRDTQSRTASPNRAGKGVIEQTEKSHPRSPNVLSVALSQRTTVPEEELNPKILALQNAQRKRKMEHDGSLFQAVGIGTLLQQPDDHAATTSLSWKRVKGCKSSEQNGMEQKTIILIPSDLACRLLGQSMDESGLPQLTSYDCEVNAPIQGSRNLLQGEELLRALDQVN

What was measured:
[1] = molecular target: T1, TSC22 domain family member (TSC22D)3 (human (endogenous in MIO‐M1)) (UniProt Q99576); assay: co-IP; endogenous proteins in extracts of MIO‐M1 cells (triamcinolone acetonide‐treated, hypoxia 1% O2 for 24 h); lysis buffer 1% NP‐40 in PBS; anti‐TSC22D3 or anti‐HIF‐1α antibody with Dynabeads Protein G overnight at 4°C; immunoblot
T1 sequence: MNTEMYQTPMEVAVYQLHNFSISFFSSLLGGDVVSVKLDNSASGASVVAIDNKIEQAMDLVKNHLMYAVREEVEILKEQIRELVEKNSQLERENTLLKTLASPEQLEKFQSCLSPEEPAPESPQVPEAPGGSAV

[2] = molecular target: hypoxia‐inducible factor (HIF)‐1α (human (endogenous in MIO‐M1)) (UniProt Q16665); assay: as above

- binding [1]: binds
Molecule: hypoxia‐inducible factor (HIF)‐1α (from UniProt Q16665 1-826)

- binding [2]: binds
B1: TSC22 domain family member (TSC22D)3 (protein, UniProt Q99576 1-134)
chain: T1 sequence
